# Data taken from article PMC10085708.
# Chains of the proteins cited; added tags and fusions are not shown. Lines headed by an entry give the natural chain unless they say otherwise; changes in a name come on top. A line that says so, or that is headed by a name, gives the form on record, which may keep a tag or linker. Residues count along the entry.
# UniProt P84022: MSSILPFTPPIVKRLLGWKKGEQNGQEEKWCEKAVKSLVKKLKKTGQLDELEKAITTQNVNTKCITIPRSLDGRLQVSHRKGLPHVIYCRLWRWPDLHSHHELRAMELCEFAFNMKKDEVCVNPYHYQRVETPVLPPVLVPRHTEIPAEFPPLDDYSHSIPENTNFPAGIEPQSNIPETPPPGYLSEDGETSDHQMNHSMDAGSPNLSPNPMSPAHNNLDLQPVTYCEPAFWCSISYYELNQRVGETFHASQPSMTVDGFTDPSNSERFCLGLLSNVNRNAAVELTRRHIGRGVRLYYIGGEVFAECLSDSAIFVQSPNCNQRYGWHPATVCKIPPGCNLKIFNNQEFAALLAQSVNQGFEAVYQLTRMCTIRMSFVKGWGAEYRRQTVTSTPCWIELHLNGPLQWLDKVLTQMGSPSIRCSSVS
# Flag-SMAD3 ΔN, lacking the MH1 domain (133-425): residues 133-425 of P84022
# UniProt P10275: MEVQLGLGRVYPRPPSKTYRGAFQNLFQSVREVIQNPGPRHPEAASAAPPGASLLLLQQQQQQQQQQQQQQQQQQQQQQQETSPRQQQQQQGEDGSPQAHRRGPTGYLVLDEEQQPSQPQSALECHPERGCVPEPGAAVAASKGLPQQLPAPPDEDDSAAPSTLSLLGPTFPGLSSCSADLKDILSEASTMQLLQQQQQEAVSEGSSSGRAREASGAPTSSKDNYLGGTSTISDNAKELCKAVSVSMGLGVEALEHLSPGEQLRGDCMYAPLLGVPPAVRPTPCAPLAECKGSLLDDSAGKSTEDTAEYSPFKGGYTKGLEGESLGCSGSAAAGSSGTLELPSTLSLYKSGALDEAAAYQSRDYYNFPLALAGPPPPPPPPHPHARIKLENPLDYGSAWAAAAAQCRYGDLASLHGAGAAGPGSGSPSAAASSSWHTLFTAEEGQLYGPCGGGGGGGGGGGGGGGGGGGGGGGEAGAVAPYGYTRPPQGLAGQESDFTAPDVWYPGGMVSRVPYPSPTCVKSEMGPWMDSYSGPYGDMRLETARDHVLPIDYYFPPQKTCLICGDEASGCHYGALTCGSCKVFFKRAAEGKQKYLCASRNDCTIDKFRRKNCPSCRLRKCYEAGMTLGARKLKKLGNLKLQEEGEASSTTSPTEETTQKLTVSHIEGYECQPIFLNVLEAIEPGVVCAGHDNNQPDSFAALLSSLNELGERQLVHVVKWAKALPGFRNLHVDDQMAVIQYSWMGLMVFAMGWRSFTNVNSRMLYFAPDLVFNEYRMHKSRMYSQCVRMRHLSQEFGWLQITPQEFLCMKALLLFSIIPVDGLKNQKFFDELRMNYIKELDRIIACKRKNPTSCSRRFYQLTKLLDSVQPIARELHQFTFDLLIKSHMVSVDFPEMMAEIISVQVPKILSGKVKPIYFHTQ
# AR-V7, endogenous (P10275-3, form named): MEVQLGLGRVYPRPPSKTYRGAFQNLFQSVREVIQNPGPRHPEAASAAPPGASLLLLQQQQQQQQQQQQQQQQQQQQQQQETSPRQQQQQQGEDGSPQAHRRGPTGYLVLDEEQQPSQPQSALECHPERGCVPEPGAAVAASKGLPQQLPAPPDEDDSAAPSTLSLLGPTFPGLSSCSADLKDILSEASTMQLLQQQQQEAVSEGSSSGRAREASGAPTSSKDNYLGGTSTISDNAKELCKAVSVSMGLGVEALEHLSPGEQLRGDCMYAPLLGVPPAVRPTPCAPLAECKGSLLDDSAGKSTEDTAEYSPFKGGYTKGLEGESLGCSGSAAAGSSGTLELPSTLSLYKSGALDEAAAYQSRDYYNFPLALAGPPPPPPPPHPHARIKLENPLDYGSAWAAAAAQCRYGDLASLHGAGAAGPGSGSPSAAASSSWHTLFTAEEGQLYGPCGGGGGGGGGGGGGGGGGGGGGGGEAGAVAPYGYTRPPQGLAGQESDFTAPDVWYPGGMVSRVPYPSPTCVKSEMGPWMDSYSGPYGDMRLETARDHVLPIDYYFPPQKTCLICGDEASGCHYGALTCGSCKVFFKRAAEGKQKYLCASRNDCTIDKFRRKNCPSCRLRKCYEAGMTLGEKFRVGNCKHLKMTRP
# Results are given in words; binding and its absence hold for the method and conditions named. In cells and extracts the contact can be indirect. Some results given as binding are weak or reduced against the parent protein; the word gives no strength.
# Assays:
# [1] = biological target: Flag-SMAD3 ΔN, lacking the MH1 domain (133-425) (UniProt P84022); test: co-IP; Flag- and myc-tagged proteins co-expressed in 293T cells; Flag IP, western blot with Flag or myc antibodies
# [2] = biological target: SMAD3, endogenous (human (endogenous in Rv1, C4-2, LN95)) (UniProt P84022); test: co-IP; endogenous proteins in Rv1 or LN95 cells (Supplementary Figure S4B)
binding [1],binding [2],Substance
binds,,Myc-AR (from UniProt P10275 1-920)
,binds,"AR-V7, endogenous (from UniProt P10275-3 1-644)"
